Binding data for two substances are collected here from paper PMC7904567.

Protein sequences, listed by entry. Tags and fused reporters are not part of them. Lines headed by an entry give the natural chain unless they say otherwise; changes in a name come on top.
UniProt P34067: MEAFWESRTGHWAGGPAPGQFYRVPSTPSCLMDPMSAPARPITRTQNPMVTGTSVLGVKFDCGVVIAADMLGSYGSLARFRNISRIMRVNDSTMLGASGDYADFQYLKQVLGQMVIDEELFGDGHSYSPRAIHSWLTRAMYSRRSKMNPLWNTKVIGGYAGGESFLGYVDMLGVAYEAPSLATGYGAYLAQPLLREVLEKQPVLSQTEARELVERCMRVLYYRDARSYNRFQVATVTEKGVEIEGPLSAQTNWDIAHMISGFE

No constants are given. Whether binding was seen depends on the method and setting. In cells and extracts the contact can be indirect. For some assays here: A result given as binding can be weak or reduced; the word gives no strength. For some assays here: Sequences can lack the tags named with a protein.

Holding throughout (assay): co-IP; lysates of co-transfected HEK293T cells; MicroMACS anti-GFP Microbeads precipitate the EGFP construct; lysis and washes in 50 mM Tris-HCl pH 8.0, 150 mM NaCl, 1% Triton X-100; immunoblot of the eluate
In general terms: In western blotting, separated proteins are transferred to a membrane and probed.

Test [1] addresses T1, Bsn3 (aa 2088–2563) (rat) (UniProt O88778).
T1 sequence: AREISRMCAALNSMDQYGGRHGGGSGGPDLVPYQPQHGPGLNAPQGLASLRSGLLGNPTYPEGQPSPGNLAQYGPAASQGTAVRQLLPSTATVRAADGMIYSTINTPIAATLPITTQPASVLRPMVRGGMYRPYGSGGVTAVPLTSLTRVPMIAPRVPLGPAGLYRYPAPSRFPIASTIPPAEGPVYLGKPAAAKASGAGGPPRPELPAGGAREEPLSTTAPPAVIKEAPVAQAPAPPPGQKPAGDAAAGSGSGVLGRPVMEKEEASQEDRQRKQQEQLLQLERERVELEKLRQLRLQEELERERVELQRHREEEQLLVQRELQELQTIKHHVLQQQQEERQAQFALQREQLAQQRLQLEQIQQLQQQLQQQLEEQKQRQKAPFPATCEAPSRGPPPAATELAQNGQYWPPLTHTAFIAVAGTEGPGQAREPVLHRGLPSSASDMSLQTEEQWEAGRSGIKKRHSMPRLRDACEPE

The target of test [2] is T2, Bsn5 (aa 2715–2820 of NP_062019.2, 11 kDa) (rat) (UniProt O88778).
T2 sequence: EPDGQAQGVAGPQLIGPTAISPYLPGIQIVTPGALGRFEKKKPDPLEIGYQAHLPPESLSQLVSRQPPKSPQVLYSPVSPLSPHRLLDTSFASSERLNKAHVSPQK

The target of test [3] is T3, EGFP-Bsn10 (aa 2013–2087, 8 kDa) (rat) (UniProt O88778).
T3 sequence: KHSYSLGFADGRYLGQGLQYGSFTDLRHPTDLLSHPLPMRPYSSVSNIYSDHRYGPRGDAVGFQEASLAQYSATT

Test [4] concerns the target T4, EGFP-Bsn4 (aa 2715–3013, 33 kDa) (rat) (UniProt O88778).
T4 sequence: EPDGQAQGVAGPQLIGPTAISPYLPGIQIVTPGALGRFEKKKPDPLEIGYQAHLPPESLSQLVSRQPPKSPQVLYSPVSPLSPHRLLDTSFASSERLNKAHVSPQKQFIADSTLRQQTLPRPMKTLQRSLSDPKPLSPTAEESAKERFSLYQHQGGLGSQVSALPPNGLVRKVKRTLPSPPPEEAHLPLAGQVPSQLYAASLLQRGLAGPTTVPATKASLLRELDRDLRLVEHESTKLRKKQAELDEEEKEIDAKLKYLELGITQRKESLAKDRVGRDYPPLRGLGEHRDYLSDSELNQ

Test [5] addresses T5, EGFP-Bsn7 (aa 1653–1878, 24 kDa) (rat) (UniProt O88778).
T5 sequence: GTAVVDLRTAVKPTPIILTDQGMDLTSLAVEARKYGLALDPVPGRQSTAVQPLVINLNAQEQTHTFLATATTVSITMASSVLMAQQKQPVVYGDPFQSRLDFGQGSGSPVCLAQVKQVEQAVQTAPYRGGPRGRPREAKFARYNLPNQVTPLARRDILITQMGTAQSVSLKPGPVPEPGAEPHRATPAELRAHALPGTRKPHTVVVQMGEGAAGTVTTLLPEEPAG

Test [6] has as its target T6, EGFP-Bsn8 (aa 1964–2087, 14 kDa) (rat) (UniProt O88778).
T6 sequence: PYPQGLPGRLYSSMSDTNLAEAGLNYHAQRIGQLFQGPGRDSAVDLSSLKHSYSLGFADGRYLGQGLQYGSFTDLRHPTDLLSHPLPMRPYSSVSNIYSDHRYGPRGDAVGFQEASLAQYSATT

The target of test [7] is T7, EGFP-Bsn9 (aa 1653–1963, 33 kDa) (rat) (UniProt O88778).
T7 sequence: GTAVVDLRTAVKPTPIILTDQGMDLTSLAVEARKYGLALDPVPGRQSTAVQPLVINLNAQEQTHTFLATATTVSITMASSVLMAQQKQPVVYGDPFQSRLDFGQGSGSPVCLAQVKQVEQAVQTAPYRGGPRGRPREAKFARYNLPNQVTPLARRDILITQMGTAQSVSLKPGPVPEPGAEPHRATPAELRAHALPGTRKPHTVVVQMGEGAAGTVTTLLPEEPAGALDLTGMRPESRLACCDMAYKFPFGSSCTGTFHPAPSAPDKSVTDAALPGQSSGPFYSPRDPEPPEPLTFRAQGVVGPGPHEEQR

In the case of “flag-ΔNPSMB4 (aa 46–264) (from UniProt P34067) (domain or fragment)”, the binding entry in test [1] is listed as “no binding”; in test [2], “no binding”; in test [3], “binds”; in test [4], “binds”; in test [5], “binds”; in test [6], “binds”. Besides, the binding result in test [7] was “binds”.
For the substance “flag-ΔNΔC-PSMB4 (aa 45–249) (from UniProt P34067) (domain or fragment)”, the binding result in test [4] is reported as “no binding”.
